Patent US20250195488A1, “MEDICINE CONTAINING VITAMIN D DERIVATIVE OR PHARMACEUTICALLY ACCEPTABLE SALT OR SOLVATE THEREOF, USED IN COMBINATION WITH IMMUNOMODULATORY SUBSTANCE” (TEEJIN PHARMA LIMITED, priority 2022, published 2025)
The amount applied is not stated for every result.

Tested on: rat oligodendrocyte progenitor cells
Assay: Promotive activity of rat oligodendrocyte progenitor cell differentiation-2 (immunostaining of MBP)
Assay type: cell-based
Settings: t-test vs DMSO group
Protocol: The promotive activity of oligodendrocyte progenitor cell (OPC) differentiation of the vitamin D derivatives was evaluated by immunostaining of MBP.
Subsequently, oligodendrocyte progenitor cell separation medium was added to the flask, and the mixture was similarly shaken for about 22 hours (37° C., 200 rpm), and the supernatant was collected to prepare oligodendrocyte progenitor cells.

C[C@H](CN1CC[C@@H](CCC(F)F)C1)[C@H]1CC[C@H]2/C(=C/C=C3C[C@@H](O)C[C@H](O)C3)CCC[C@]12C [Compound B064, (1R,3R)-5-(2-((1R,3aS,7aR,E)-1-((S)-1-((R)-3-(3,3-difluoropropyl)pyrrolidin-1-yl)propan-2-yl)-7a-methyloctahydro-4H-inden-4-ylidene)ethylidene)cyclohexane-1,3-diol]
Significant difference (Test 2): **** (<0.0001)

C=C1/C(=C\C=C2/CCC[C@]3(C)[C@@H]([C@H](C)CN4CCC[C@H]4C(C)(C)O)CC[C@@H]23)C[C@@H](O)C[C@@H]1O [Compound F014, (1R,3S,Z)-5-(2-((1R,3aS,7aR,E)-1-((S)-1-((S)-2-(2-hydroxypropan-2-yl)pyrrolidin-1-yl)propan-2-yl)-7a-methyloctahydro-4H-inden-4-ylidene)ethylidene)-4-methylenecyclohexane-1,3-diol]
Significant difference (Test 8): *** (<0.001)

C[C@H](CN1CCN(C)C[C@H]1C)[C@H]1CC[C@H]2/C(=C/C=C3C[C@@H](O)C[C@H](O)C3)CCC[C@]12C [Compound G012, (1R,3R)-5-(2-((1R,3aS,7aR,E)-1-((S)-1-((R)-2,4-dimethylpiperazin-1-yl)propan-2-yl)-7a-methyloctahydro-4H-inden-4-ylidene)ethylidene)cyclohexane-1,3-diol]
Significant difference (Test 5): * (<0.05)

C[C@H](CN1CCCC[C@H]1C)[C@H]1CC[C@H]2/C(=C/C=C3C[C@@H](O)C[C@H](O)C3)CCC[C@]12C [Compound G002, (1R,3R)-5-(2-((1R,3aS,7aR,E)-7a-methyl-1-((S)-1-((R)-2-methylpiperidin-1-yl)propan-2-yl)octahydro-4H-inden-4-ylidene)ethylidene)cyclohexane-1,3-diol]
Significant difference (Test 3): **** (<0.0001)

C=C1/C(=C\C=C2/CCC[C@]3(C)[C@@H]([C@H](C)CN4CC[C@H](CC(F)F)C4)CC[C@@H]23)C[C@@H](O)C[C@@H]1O [Compound B036, (1R,3S,Z)-5-(2-((1R,3aS,7aR,E)-1-((S)-1-((R)-3-(2,2-difluoroethyl)pyrrolidin-1-yl)propan-2-yl)-7a-methyloctahydro-4H-inden-4-ylidene)ethylidene)-4-methylcyclohexane-1,3-diol]
Significant difference (Test 1): **** (<0.0001)

C=C1[C@H](O)CC(=C/C=C2\CCC[C@]3(C)[C@@H]([C@H](C)CCN4CCOCC4)CC[C@@H]23)C[C@H]1O [Compound D024, (1R,3R)-5-(2-((1R,3aS,7aR,E)-7a-methyl-1-((R)-4-morpholinobutan-2-yl)octahydro-4H-inden-4-ylidene)ethylidene)-2-methylenecyclohexane-1,3-diol]
Significant difference (Test 2): **** (<0.0001)

C[C@H](CN1CC[C@@H](OCC(F)F)C1)[C@H]1CC[C@H]2/C(=C/C=C3C[C@@H](O)C[C@H](O)C3)CCC[C@]12C [Compound B058, (1R,3R)-5-(2-((1R,3aS,7aR,E)-1-((S)-1-((R)-3-(2,2-difluoroethoxy)pyrrolidin-1-yl)propan-2-yl)-7a-methyloctahydro-4H-inden-4-ylidene)ethylidene)cyclohexane-1,3-diol]
Significant difference (Test 2): **** (<0.0001)

C[C@H](CN1CCOC2(CC2)C1)[C@H]1CC[C@H]2/C(=C/C=C3C[C@@H](O)C[C@H](O)C3)CCC[C@]12C [Compound D019, (1R,3R)-5-(2-((1R,3aS,7aR,E)-1-((S)-1-(4-oxa-7-azaspiro[2.5]octan-7-yl)propan-2-yl)-7a-methyloctahydro-4H-inden-4-ylidene)ethylidene)cyclohexane-1,3-diol]
Significant difference (Test 2): **** (<0.0001)

C=C1/C(=C\C=C2/CCC[C@]3(C)[C@@H]([C@H](C)CN4CCOC[C@H]4C)CC[C@@H]23)C[C@@H](O)C[C@H]1O [Compound I005, (1R,3R,Z)-5-(2-((1R,3aS,7aR,E)-7a-methyl-1-((S)-1-((R)-3-methylmorpholino)propan-2-yl)octahydro-4H-inden-4-ylidene)ethylidene)-4-methylenecyclohexane-1,3-diol]
Significant difference (Test 4): **** (<0.0001)

C=C1/C(=C\C=C2/CCC[C@]3(C)[C@@H]([C@H](C)CN4CCC[C@@H]4C(C)(C)O)CC[C@@H]23)C[C@@H](O)C[C@@H]1O [Compound F013, (1R,3S,Z)-5-(2-((1R,3aS,7aR,E)-1-((S)-1-((R)-2-(2-hydroxypropan-2-yl)pyrrolidin-1-yl)propan-2-yl)-7a-methyloctahydro-4H-inden-4-ylidene)ethylidene)-4-methylenecyclohexane-1,3-diol]
Significant difference (Test 9): **** (<0.0001)

C=C1[C@H](O)CC(=C/C=C2\CCC[C@]3(C)[C@@H]([C@H](C)CN4CC[C@H](C(F)F)C4)CC[C@@H]23)C[C@H]1O [Compound B023, (1R,3R)-5-(2-((1R,3aS,7aR,E)-1-((S)-1-((S)-3-(difluoromethyl)pyrrolidin-1-yl)propan-2-yl)-7a-methyloctahydro-4H-inden-4-ylidene)ethylidene)-2-methylenecyclohexane-1,3-diol]
Significant difference (Test 1): **** (<0.0001)

C[C@H](CN1CC[C@H](CC(F)F)C1)[C@H]1CC[C@H]2/C(=C/C=C3C[C@@H](O)C[C@H](O)C3)CCC[C@]12C [Compound B042, (1R,3R)-5-(2-((1R,3aS,7aR,E)-1-((S)-1-((R)-3-(2,2-difluoroethyl)pyrrolidin-1-yl)propan-2-yl)-7a-methyloctahydro-4H-inden-4-ylidene)ethylidene)cyclohexane-1,3-diol]
Significant difference (Test 1): **** (<0.0001)

C=C1[C@H](O)CC(=C/C=C2\CCC[C@]3(C)[C@@H]([C@H](C)CN4CCN(C)C[C@@H]4C)CC[C@@H]23)C[C@H]1O [Compound H011, (1R,3R)-5-(2-((1R,3aS,7aR,E)-1-((S)-1-((S)-2,4-dimethylpiperazin-1-yl)propan-2-yl)-7a-methyloctahydro-4H-inden-4-ylidene)ethylidene)-2-methylenecyclohexane-1,3-diol]
Significant difference (Test 5): *** (<0.001)

C=C1[C@H](O)CC(=C/C=C2\CCC[C@]3(C)[C@@H]([C@H](C)CN4CCN(C)C[C@H]4C)CC[C@@H]23)C[C@H]1O [Compound H012, (1R,3R)-5-(2-((1R,3aS,7aR,E)-1-((S)-1-((R)-2,4-dimethylpiperazin-1-yl)propan-2-yl)-7a-methyloctahydro-4H-inden-4-ylidene)ethylidene)-2-methylenecyclohexane-1,3-diol]
Significant difference (Test 7): ** (<0.01)

C=C1[C@H](O)CC(=C/C=C2\CCC[C@]3(C)[C@@H]([C@H](C)CN4CC[C@@H](C(F)F)C4)CC[C@@H]23)C[C@H]1O [Compound B027, (1R,3R)-5-(2-((1R,3aS,7aR,E)-1-((S)-1-((R)-3-(difluoromethyl)pyrrolidin-1-yl)propan-2-yl)-7a-methyloctahydro-4H-inden-4-ylidene)ethylidene)-2-methylenecyclohexane-1,3-diol]
Significant difference (Test 1): **** (<0.0001)

C=C1/C(=C\C=C2/CCC[C@]3(C)[C@@H]([C@H](C)CN4CCOC[C@H]4C)CC[C@@H]23)C[C@@H](O)C[C@@H]1O [Compound F005, (1R,3S,Z)-5-(2-((1R,3aS,7aR,E)-7a-methyl-1-((S)-1-((R)-3-methylmorpholino)propan-2-yl)octahydro-4H-inden-4-ylidene)ethylidene)-4-methylenecyclohexane-1,3-diol]
Significant difference (Test 3): **** (<0.0001)

C=C1/C(=C\C=C2/CCC[C@]3(C)[C@@H]([C@H](C)CN4CCOCC4(C)C)CC[C@@H]23)C[C@@H](O)C[C@H]1O [Compound I006, (1R,3R,Z)-5-(2-((1R,3aS,7aR,E)-1-((S)-1-(3,3-dimethylmorpholino)propan-2-yl)-7a-methyloctahydro-4H-inden-4-ylidene)ethylidene)-4-methylenecyclohexane-1,3-diol]
Significant difference (Test 4): **** (<0.0001)

C=C1[C@H](O)CC(=C/C=C2\CCC[C@]3(C)[C@@H]([C@H](C)CN4CC[C@H](OCC(F)F)C4)CC[C@@H]23)C[C@H]1O [Compound B055, (1R,3R)-5-(2-((1R,3aS,7aR,E)-1-((S)-1-((S)-3-(2,2-difluoroethoxy)pyrrolidin-1-yl)propan-2-yl)-7a-methyloctahydro-4H-inden-4-ylidene)ethylidene)-2-methylenecyclohexane-1,3-diol]
Significant difference (Test 2): **** (<0.0001)

C=C1/C(=C\C=C2/CCC[C@]3(C)[C@@H]([C@H](C)CN4CCC[C@@H]4C(C)(C)OC)CC[C@@H]23)C[C@@H](O)C[C@@H]1O [Compound F015, (1R,3S,Z)-5-(2-((1R,3aS,7aR,E)-1-((S)-1-((R)-2-(2-methoxypropan-2-yl)pyrrolidin-1-yl)propan-2-yl)-7a-methyloctahydro-4H-inden-4-ylidene)ethylidene)-4-methylenecyclohexane-1,3-diol]
Significant difference (Test 8): *** (<0.001)

C=C1/C(=C\C=C2/CCC[C@]3(C)[C@@H]([C@H](C)CN4CC[C@H](C(C)(F)F)C4)CC[C@@H]23)C[C@@H](O)[C@H](C)[C@@H]1O [Compound B029, (1R,2S,3S,Z)-5-(2-((1R,3aS,7aR,E)-1-((S)-1-((S)-3-(1,1-difluoroethyl)pyrrolidin-1-yl)propan-2-yl)-7a-methyloctahydro-4H-inden-4-ylidene)ethylidene)-2-methyl-4-methylenecyclohexane-1,3-diol]
Significant difference (Test 1): **** (<0.0001)

C[C@H](CN1CC[C@@H](C(F)F)C1)[C@H]1CC[C@H]2/C(=C/C=C3C[C@@H](O)C[C@H](O)C3)CCC[C@]12C [Compound B026, (1R,3R)-5-(2-((1R,3aS,7aR,E)-1-((S)-1-((R)-3-(difluoromethyl)pyrrolidin-1l-yl)propan-2-yl)-7a-methyloctahydro-4H-inden-4-ylidene)ethylidene)cyclohexane-1,3-diol]
Significant difference (Test 1): **** (<0.0001)
